B1: ttGGBP182C.2.7: affinity-tuning mutant, 182C background, SEQ ID NO: 94 (protein)
chain: MKQLNIGVAIYKFDDTFMTGVRNAMTAEAQGKAKLNMVDSQNSQPTQNDQVDLFITKKMNALAINPVDRTAAGTIIDKAKQANIPVVFFNKEPLPEDMKKWDKVYYVGAKAEQSGILQGQIMADYWKAHPEADKNHDGVMQYVMLMGEPGFQDAILRTQYSIQTVKDAGIKVQELAKDYANCDRVTAHDKMAAWLSSFGDKIEAVFANNDDMALGAIEALKSAGYFTGNKYIPVVGVDATAPGIQAIKDGTLLGTVLNDAKNQAKATFNIAYELAQGITPTKDNIGYDITDGKYVWIPYKKITKDNISDAEQGGSHHHHHH
modifications: ttGGBP182C.2.7 (affinity-tuning mutant, 182C background (Table 6) with signal peptide replaced with M and GGSHHHHHH at C-terminus)
B2: ttGGBP182C.4: affinity-tuning mutant, 182C background, SEQ ID NO: 98 (protein)
chain: MKQLNIGVAIYKFDDTFMTGVRNAMTAEAQGKAKLNMVDSQNSQPTQNDQVDLFITKKMNALAINPVDRTAAGTIIDKAKQANIPVVFFNREPLPEDMKKWDKVYYVGAKAEQSGILQGQIMADYWKAHPEADKNHDGVMQYVMLMGEPGHQDAILRTQYSIQTVKDAGIKVQELAKDYANCDRVTAHDKMAAWLSSFGDKIEAVFANNDDMALGAIEALKSAGYFTGNKYIPVVGVDATAPGIQAIKDGTLLGTVLNDAKNQAKATFNIAYELAQGITPTKDNIGYDITDGKYVWIPYKKITKDNISDAEQGGSHHHHHH
modifications: ttGGBP182C.4 (affinity-tuning mutant, 182C background (Table 6) with signal peptide replaced with M and GGSHHHHHH at C-terminus)
B3: ttGGBP182C.2.8: affinity-tuning mutant, 182C background, SEQ ID NO: 95 (protein)
chain: MKQLNIGVAIYKFDNTFMTGVRNAMTAEAQGKAKLNMVDSQNSQPTQNDQVDLFITKKMNALAINPVDRTAAGTIIDKAKQANIPVVFFNKEPLPEDMKKWDKVYYVGAKAEQSGILQGQIMADYWKAHPEADKNHDGVMQYVMLMGEPGHQDAILRTQYSIQTVKDAGIKVQELAKDYANCDRVTAHDKMAAWLSSFGDKIEAVFANNDDMALGAIEALKSAGYFTGNKYIPVVGVDATAPGIQAIKDGTLLGTVLNDAKNQAKATFNIAYELAQGITPTKDNIGYDITDGKYVWIPYKKITKDNISDAEQGGSHHHHHH
modifications: ttGGBP182C.2.8 (affinity-tuning mutant, 182C background (Table 6) with signal peptide replaced with M and GGSHHHHHH at C-terminus)
B4: ttGGBP182C.5: affinity-tuning mutant, 182C background, SEQ ID NO: 99 (protein)
chain: MKQLNIGVAIYKFDDTFMTGVRNAMTAEAQGKAKLNMVDSQNSQPTQNDQVDLFITKKMNALAINPVDPTAAGTIIDKAKQANIPVVFFNREPLPEDMKKWDKVYYVGAKAEQSGILQGQIMADYWKAHPEADKNHDGVMQYVMLMGQPGHPDAILRTQYSIQTVKDAGIKVQELAKDYANCDRVTAHDKMAAWLSSFGDKIEAVFANNDDMALGAIEALKSAGYFTGNKYIPVVGVDATAPGIQAIKDGTLLGTVLNDAKNQAKATFNIAYELAQGITPTKDNIGYDITDGKYVWIPYKKITKDNISDAEQGGSHHHHHH
modifications: ttGGBP182C.5 (affinity-tuning mutant, 182C background (Table 6) with signal peptide replaced with M and GGSHHHHHH at C-terminus)

Test: Glucose-dependent fluorescence emission intensity spectra of conjugates (Nanodrop3300)
Assay type: biochemical
Details: Acrylodan conjugate; Nanodrop, room temperature
Source text: Semi-synthetic FRSs were engineered by site-specifically attaching thiol-reactive, environmentally sensitive fluorophores that respond to ligand-mediated conformational changes. Identification of FRS candidates that are useful for sensing applications comprises three steps: • 1. Cysteine scan. Mutant glucose-binding proteins containing single cysteines are constructed for site-specific attachment of thiol-reactive fluorophores. […] Candidate positions fall into three classes: endosteric, replacing a residue that contacts the ligand directly; peristeric, located at the rim of the binding site; allosteric (Marvin et al. 1997 Proc Natl Acad Sci USA, 94, 4366-71; Marvin 1998 J Am Chem Soc, 120, 7-11), located outside the binding site at sites that undergo local structural changes in concert with the hinge-bending motion. • 2. Fluorophore screening. Thiol-reactive, environmentally sensitive fluorophores are attached to each cysteine mutant prepared in step 1. • 3. Evaluation of the glucose-mediated change of all the fluorescent conjugates prepared in step 2. Responses to ligand binding in which there is both a change in fluorescence emission intensity and spectral shape was essential for chemometric applications, because such changes enable ratiometric measurements. Changes in spectral shape typically are accompanied by a shift in the wavelength of the emission intensity maxima. Three classes of fluorescent responses are possible: • i. No response. • ii. Monochromatic response (emission intensity increases or decreases without a change in spectral shape) • iii.

| Molecule | Emission wavelength λ1 (optimal ratiometry wavelength) | Emission wavelength λ2 (optimal ratiometry wavelength) |
| --- | --- | --- |
| B1 | 475 nm | 545 nm |
| B2 | 475 nm | 542 nm |
| B3 | 474 nm | 542 nm |
| B4 | 477 nm | 535 nm |
